Structures are written as SMILES. This is one part of the list. Further columns of the screen follow, without active or inactive calls. The list favours compounds with an active or inconclusive main result. Words in brackets tell the shape of the fitted curve; partial curves, single points and poor fits give uncertain potencies.

The assay in a line: IkB Signaling. The note with it: ABC-DLBCL IkBa-CBG/CBR dual luciferase ratio (green luciferase fused to IkBa over red control in OCI-Ly3 lymphoma cells), 4 h; measured here: control luc red channel unless noted. An outline of the steps:
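Luminescence ratio of IκBα-fused green versus native red beetle luciferase in OCI-Ly3 cells, 4 h post-doxycycline with compound; red signal alone, scaled from basal (0%) to zero light (-100%), flagged nonspecific or cytotoxic effects.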
Usually AC50 stands for the midpoint of the concentration-response curve, whichever way the signal moves. In the case of `CCOC(=O)c1ccccc1NC(=O)CN(c1cc(C(F)(F)F)ccc1Cl)S(C)(=O)=O`, the AC50 was 25.1 µM [falling, single point]. The value for `Cc1ccc2nc(NC(=O)C3CCCN(S(=O)(=O)c4cccc5nonc45)C3)sc2c1` (centres undefined) was 2.51 µM [falling, full curve]. Take `CCCCSCCCNC(=O)c1cn(CC)c2ccc(S(=O)(=O)N(C)C3CCCCC3)cc2c1=O`: the AC50 was 25.1 µM [falling, single point].

Take `c1ccc(-c2nc(NCc3ccco3)c3ccccc3n2)nc1`: the AC50 is 12.6 µM [falling, partial curve]. Regarding `Cc1ccc(CCNC(=O)CCS(=O)(=O)c2ccc3c(c2)oc(=O)n3C)cc1`, the AC50 was 1.26 µM [falling, full curve, poor fit]. The result for `Cc1[nH]c(=O)[nH]c(=O)c1NC(=O)CSc1ncccc1-c1nc2ccccc2[nH]1` reads 12.6 µM [falling, partial curve]; that for `Cc1c(Cl)cccc1NC(=O)C1CCCN(C(=O)c2cnn(-c3ccccc3)c2-n2cccc2)C1` (centres undefined), 25.1 µM [falling, partial curve]; that for `O=C(CN1C(=O)COc2ccc(S(=O)(=O)N3CCOCC3)cc21)Nc1ccc(F)c(Cl)c1`, 39.8 µM [falling, single point]. The result for `O=C(NCCc1ccc(Cl)cc1)C(=O)NCC(c1ccc2c(c1)OCO2)N1CCOCC1` (centres undefined) reads 25.1 µM [rising, partial curve]; that for `Cc1cc(C)n(-c2nc3ccccc3nc2N2CCCCCC2)n1`, 20 µM [falling, partial curve]. The result for `O=C(Nc1nnc(Cc2ccccc2)s1)c1cccs1` reads 25.1 µM [falling, single point]. For the compound `O=C(Nc1cc(C(F)(F)F)ccc1Cl)c1cc(-c2cccs2)nc2ccccc12`, the AC50 is 2 µM [falling, full curve, poor fit]. The result for `Cc1cc(C)c(S(=O)(=O)NCCc2sc(-c3cccnc3)nc2C)c(C)c1` reads 5.01 µM [rising, full curve].

With `O=C1CN(CC(=O)N2CCCCC2)c2ccccc2O1`, the AC50 is 1.26 µM [falling, full curve].

Take `Cc1cc(S(=O)(=O)Nc2cc3c(cc2Cl)n(C)c(=O)c(=O)n3C)ccc1F`: the concentration at half-maximal activity (AC50) is 39.8 µM [falling, single point].

As to `COc1ccc(S(=O)(=O)NCC(c2cccnc2)N2CCN(c3ccccc3OC)CC2)cc1C` (centres undefined), the concentration at half-maximal activity (AC50) is 12.6 µM [falling, partial curve]. The result for `CCOC(=O)c1cc(-c2ccc(OC)cc2)n(CCC(=O)NCc2ccccc2OC)c1C` reads 25.1 µM [falling, single point]; that for `Cc1ccsc1CN(Cc1ccco1)C(=O)c1ccc(Cl)cc1`, 31.6 µM [falling, single point]; that for `COc1ccc(S(=O)(=O)N(Cc2ccccc2)Cc2nc(-c3ccccc3)no2)cc1`, 12.6 µM [falling, partial curve].

Regarding `CCOC(=O)C1=C(CS(=O)(=O)c2ccc(C(C)(C)C)cc2)NC(=O)NC1c1cccc(OC)c1` (centres undefined), the AC50 is 39.8 µM [falling, single point]. In the case of `Cc1cccc(NC(=O)CSc2nnc3[nH]c(=O)cc(C)n23)c1C`, the AC50 is 3.98 µM [rising, single point]. The value for `O=C(NCc1cccnc1)c1noc2c1CCCC2` was 3.98 µM [falling, partial curve]. The value for `O=C(CSc1nnc(-c2ccc(F)cc2)o1)Nc1ccc(S(=O)(=O)N2CCCC2)cc1` was 12.6 µM [falling, partial curve]; that for `Cc1cc(S(=O)(=O)Nc2cc3c(cc2NCc2ccccc2)n(C)c(=O)n3C)ccc1F` was 31.6 µM [falling, partial curve].

Take `O=C(CSCc1ccc(F)cc1)N1CCc2c([nH]c3ccccc23)C1c1ccc(F)cc1` (centres undefined): the AC50 is 15.8 µM [falling, partial curve]. The value for `Cc1c(C(=O)Nc2cccc(C(F)(F)F)c2)oc2ccc(S(=O)(=O)N3CCC4(CC3)OCCO4)cc12` was 15.8 µM [falling, partial curve]; that for `Cc1ccc2c(c1)N(C(=O)CCC(=O)Nc1ccc(F)cc1F)CC(C)O2` (centres undefined) was 12.6 µM [falling, partial curve]. As for `CCOc1ccccc1N(C)C(=O)c1cc(S(=O)(=O)NCCc2ccc(Cl)cc2)ccc1F`, the AC50 was 12.6 µM [falling, partial curve]. In the case of `CC(C)(C)c1ccc(C(=O)N2CCC(c3noc(-c4ccc(S(=O)(=O)N5CCCC5)cc4)n3)CC2)cc1`, the AC50 is 10 µM [falling, partial curve].

On to `CCN(CC)S(=O)(=O)c1ccc(NC(=O)c2ccc3c(=O)n4c(nc3c2)CCCCC4)cc1`, for which the AC50 is 15.8 µM [falling, partial curve]. The result for `CCc1ccccc1NC(=O)CSc1nc(C)c(C(=O)Nc2ccccc2)c(-c2ccc(Cl)cc2)c1C#N` reads 5.01 µM [falling, partial curve]; that for `Cc1ccc(C)c2[nH]c(=O)c(CN(Cc3ccco3)C(=O)Nc3ccccc3)cc12`, 12.6 µM [falling, partial curve]. The value for `COc1ccc(-c2nnc(SCC(=O)N3CCc4ccccc4C3)o2)cc1` was 39.8 µM [falling, single point]; that for `CCN(CC)C(=O)Cn1nc(-c2ccccc2O)nc1SCC(=O)Nc1ccc(OC)cc1` was 25.1 µM [falling, partial curve]. The result for `COc1ccc(C2=NCC(CSc3nnc(-c4ccc5c(c4)OCO5)o3)S2)cc1` (centres undefined) reads 10 µM [falling, partial curve]; that for `Cc1oc2ccc(O)c(CN3CCN(Cc4ccccc4)CC3)c2c1C(=O)Nc1ccccc1`, 15.8 µM [falling, partial curve]; that for `CCn1c2ccccc2c2nnc(SCc3ccccc3)nc21`, 12.6 µM [falling, partial curve]. As to `O=C(CSc1nnc(-c2cccs2)n1Cc1ccco1)Nc1ccc2c(c1)OCO2`, the AC50 is 12.6 µM [falling, partial curve]. The result for `Cc1cc(C)c(S(=O)(=O)NCCc2cc3cc(C)c(C)cc3[nH]c2=O)c(C)c1` reads 25.1 µM [falling, partial curve, poor fit].
